For three molecules, GAPDH results are on record in patent publication EP2801357A1, “Carboxylated stilbenes for activating AMPK and sirtuins” (IMD Natural Solutions GmbH, priority 2013, dated 2014).

The data set concerns 5'-AMP-activated protein kinase (AMPK). The data set can be described thus: Western blot analysis of AMPK phosphorylation in NHEK. The note with it: 48 h, loading control. In kind it is cell-based, human. For orientation: Immunoblotting shows a protein as a band on a membrane.

Take `NC(=O)c1ncn([C@@H]2O[C@H](CO)[C@@H](O)[C@H]2O)c1N` [AICAR, 5-Amino-1-ß-D-ribofuranosyl-imidazole-4-carboxamide]: the GAPDH by setting is: (Experiment 1, Membrane 1, 1000 µM) 518 AU/mm^2; (Experiment 2, 1000 µM) 2406346 AU/mm^2.

Regarding `Oc1ccc(/C=C/c2cc(O)cc(O)c2)cc1` [trans-resveratrol], the GAPDH by setting is: (Experiment 1, Membrane 2, 300 µM) 282 AU/mm^2; (Experiment 2, 10 µM) 2511753 AU/mm^2; (Experiment 2, 30 µM) 2177595 AU/mm^2; (Experiment 2, 100 µM) 2479461 AU/mm^2; (Experiment 2, 200 µM) 2561347 AU/mm^2; (Experiment 2, 300 µM) 2912376 AU/mm^2.

With `CCOC(=O)c1c(O)cccc1/C=C/c1ccc(OCC)cc1` [(I-1)], the GAPDH was found to be 480 AU/mm^2 (Experiment 1, Membrane 1, 3 µM); 528 AU/mm^2 (Experiment 1, Membrane 1, 10 µM); 599 AU/mm^2 (Experiment 1, Membrane 1, 30 µM).
